Data taken from publication PMC12454940.
Results are given in words; binding and its absence hold for the method and conditions named. Binding seen in cells or lysates may run through a third protein. Some results given as binding are weak or reduced against the parent protein; the word gives no strength.

Amino acid sequences for entries named in this document (tags omitted).
UniProt Q86WV6: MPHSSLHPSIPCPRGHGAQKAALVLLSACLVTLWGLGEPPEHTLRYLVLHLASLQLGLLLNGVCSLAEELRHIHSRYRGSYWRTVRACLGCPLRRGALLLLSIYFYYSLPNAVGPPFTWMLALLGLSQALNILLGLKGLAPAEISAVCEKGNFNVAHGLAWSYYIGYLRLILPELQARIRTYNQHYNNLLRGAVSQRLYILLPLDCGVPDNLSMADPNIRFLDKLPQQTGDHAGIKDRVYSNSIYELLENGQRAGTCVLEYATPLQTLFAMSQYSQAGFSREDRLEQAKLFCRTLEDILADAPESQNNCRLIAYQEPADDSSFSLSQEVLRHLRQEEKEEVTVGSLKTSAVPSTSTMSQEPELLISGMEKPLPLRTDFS
UniProt Q9QXX8: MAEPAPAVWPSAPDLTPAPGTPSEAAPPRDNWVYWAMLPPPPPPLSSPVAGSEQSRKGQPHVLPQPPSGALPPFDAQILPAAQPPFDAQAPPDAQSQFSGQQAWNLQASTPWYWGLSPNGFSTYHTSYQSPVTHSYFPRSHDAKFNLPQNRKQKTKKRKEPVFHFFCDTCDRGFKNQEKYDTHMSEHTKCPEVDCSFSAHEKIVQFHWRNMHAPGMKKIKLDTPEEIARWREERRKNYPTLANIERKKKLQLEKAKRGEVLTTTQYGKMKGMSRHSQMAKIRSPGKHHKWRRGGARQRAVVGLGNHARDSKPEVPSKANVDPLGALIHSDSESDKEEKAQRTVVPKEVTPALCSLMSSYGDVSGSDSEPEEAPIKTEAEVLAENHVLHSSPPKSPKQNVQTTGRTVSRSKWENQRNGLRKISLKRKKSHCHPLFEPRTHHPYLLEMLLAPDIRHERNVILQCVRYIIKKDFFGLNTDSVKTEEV
UniProt Q9UHK0: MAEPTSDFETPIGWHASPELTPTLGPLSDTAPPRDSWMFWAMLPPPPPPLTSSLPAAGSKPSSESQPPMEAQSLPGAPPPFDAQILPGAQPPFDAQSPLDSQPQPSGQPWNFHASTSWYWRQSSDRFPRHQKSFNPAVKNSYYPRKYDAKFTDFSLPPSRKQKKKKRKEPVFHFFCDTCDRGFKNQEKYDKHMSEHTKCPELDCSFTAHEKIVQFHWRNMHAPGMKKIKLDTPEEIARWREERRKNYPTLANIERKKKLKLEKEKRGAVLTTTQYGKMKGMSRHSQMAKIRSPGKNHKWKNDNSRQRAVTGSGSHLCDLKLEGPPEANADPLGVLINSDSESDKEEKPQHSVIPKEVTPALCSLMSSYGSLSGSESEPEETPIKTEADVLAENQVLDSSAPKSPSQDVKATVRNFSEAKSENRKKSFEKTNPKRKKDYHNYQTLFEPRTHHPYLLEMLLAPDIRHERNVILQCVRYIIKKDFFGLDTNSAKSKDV

What was measured:
[1] = target: T1, Z-nucleic acid binding protein 1 (ZBP1), in mouse splenic CD4+ T lymphocytes (mouse (endogenous in splenic CD4+ T lymphocytes)) (UniProt Q9QY24); experiment: co-IP; lysate of primary CD4+ T lymphocytes from mouse spleen; specific antibody to the desired protein, protein A/G agarose beads overnight at low temperature, washes, elution in SDS loading buffer, Western blot; which protein was precipitated not given
T1 sequence: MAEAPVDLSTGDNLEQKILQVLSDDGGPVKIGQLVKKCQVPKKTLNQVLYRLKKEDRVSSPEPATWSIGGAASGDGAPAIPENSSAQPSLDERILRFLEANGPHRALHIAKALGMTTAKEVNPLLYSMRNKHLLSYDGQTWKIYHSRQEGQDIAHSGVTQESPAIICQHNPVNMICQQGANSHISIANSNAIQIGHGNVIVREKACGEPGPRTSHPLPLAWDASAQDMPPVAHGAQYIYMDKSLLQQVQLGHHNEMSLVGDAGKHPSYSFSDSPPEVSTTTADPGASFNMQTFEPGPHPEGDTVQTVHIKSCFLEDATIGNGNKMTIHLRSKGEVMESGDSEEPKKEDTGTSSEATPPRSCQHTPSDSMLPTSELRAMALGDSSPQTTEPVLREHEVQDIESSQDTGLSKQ

[2] = target: T2, stimulator of interferon genes (STING), in murine CD4+ T lymphocytes (mouse (endogenous in CD4+ T lymphocytes)) (UniProt Q3TBT3); experiment: as above
T2 sequence: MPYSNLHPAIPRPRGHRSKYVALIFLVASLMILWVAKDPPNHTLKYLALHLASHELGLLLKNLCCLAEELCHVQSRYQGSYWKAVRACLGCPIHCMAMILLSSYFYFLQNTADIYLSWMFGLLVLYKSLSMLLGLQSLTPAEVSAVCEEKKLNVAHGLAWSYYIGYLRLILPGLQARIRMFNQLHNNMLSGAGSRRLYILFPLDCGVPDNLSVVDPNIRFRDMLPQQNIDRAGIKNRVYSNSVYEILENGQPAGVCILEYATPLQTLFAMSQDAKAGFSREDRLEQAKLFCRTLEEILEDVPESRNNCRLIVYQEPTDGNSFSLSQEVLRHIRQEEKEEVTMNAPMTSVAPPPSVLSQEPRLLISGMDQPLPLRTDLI

[3] = target: T3, Z-nucleic acid binding protein 1 (ZBP1), in Jurkat T cells (human (endogenous in Jurkat)) (UniProt Q9H171); experiment: co-IP; Jurkat T cell lysate; specific antibody to the desired protein, protein A/G agarose beads overnight at low temperature, washes, elution in SDS loading buffer, Western blot; which protein was precipitated not given
T3 sequence: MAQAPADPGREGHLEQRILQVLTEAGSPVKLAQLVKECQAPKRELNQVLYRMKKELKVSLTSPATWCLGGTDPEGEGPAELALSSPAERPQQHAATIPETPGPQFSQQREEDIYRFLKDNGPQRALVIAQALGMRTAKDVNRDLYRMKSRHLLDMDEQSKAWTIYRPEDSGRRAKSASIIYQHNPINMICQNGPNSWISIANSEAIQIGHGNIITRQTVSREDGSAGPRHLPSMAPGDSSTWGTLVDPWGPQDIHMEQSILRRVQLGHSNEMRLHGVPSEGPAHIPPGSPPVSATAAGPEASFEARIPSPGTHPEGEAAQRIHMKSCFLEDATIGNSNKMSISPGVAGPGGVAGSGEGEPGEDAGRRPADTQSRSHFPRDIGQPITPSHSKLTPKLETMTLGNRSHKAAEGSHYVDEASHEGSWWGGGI

[4] = target: stimulator of interferon genes (STING), in Jurkat T cells (human (endogenous in Jurkat)) (UniProt Q86WV6); experiment: as above

| Substance | binding [1] | binding [2] | binding [3] | binding [4] |
| --- | --- | --- | --- | --- |
| nuclear fragile X mental retardation-interacting protein 1 (NUFIP1), in mouse splenic CD4+ T lymphocytes (from UniProt Q9QXX8 1-484) | binds | binds |  |  |
| nuclear fragile X mental retardation-interacting protein 1 (NUFIP1), in Jurkat T cells (from UniProt Q9UHK0 1-495) |  |  | binds | binds |
